Experimental data taken from US20140045807A2, “THE USE OF 3-METHOXY-PREGNENOLONE FOR THE PREPARATION OF A DRUG FOR TREATING A TRAUMATIC BRAIN INJURY” (priority 2004, published 2014).
At least one structure is not confirmed: it was looked up by name or label, or the drawing left a doubt.

Test system: PC12 cells
Experiment: Neuritic growth / sprouting in PC12 cells with NGF
Assay type: cell-based, rat
Conditions: steroid 30 μM, NGF 10 ng/ml, 3 days; relative to PREG

SMILES	Neuritic sprouting
CO[C@H]1CC[C@@]2(C)C(CCC3C2CC[C@@]2(C)C3CC[C@@H]2[C@@H](C)O)C1 (stereo partly drawn) [3β-methoxy-5α-pregnane-20β-ol]	++
CO[C@H]1CC[C@@]2(C)C(=CC[C@@H]3[C@@H]2CC[C@@]2(C)[C@H]3CC[C@@]2(C(C)=O)C(Cl)Cl)C1 [3β-methoxy-pregna-5-ene-20-one-17α-dichloromethyl]	+++
CC(=O)[C@@]12C[C@@H]1C[C@H]1[C@@H]3CC=C4C[C@@H](O)CC[C@]4(C)[C@H]3CC[C@@]12C [PREG-16α,17α-methylene]	+
CC(=O)[C@H]1[C@H](C)C[C@H]2[C@@H]3CC=C4C[C@@H](O)CC[C@]4(C)[C@H]3CC[C@@]21C [PREG-16α-methyl]	++
CC(=O)O[C@H](C)[C@H]1CC[C@H]2[C@@H]3CC=C4C[C@@H](O)CC[C@]4(C)[C@H]3CC[C@]12C [Pregna-5-ene-3β,20β-diol-20-acetate]	++
